In the supplement of paper PMC12819154, “High-throughput peptide-centric local stability assay extends protein–ligand identification to membrane proteins, tissues and bacteria” (Nature Structural & Molecular Biology, 2025) one finds log2 fold change data, which are given here for 28 targets.

Protein sequences, listed by entry. Tags and fused reporters are not part of them. Lines headed by an entry give the natural chain unless they say otherwise; changes in a name come on top.
UniProt O95873: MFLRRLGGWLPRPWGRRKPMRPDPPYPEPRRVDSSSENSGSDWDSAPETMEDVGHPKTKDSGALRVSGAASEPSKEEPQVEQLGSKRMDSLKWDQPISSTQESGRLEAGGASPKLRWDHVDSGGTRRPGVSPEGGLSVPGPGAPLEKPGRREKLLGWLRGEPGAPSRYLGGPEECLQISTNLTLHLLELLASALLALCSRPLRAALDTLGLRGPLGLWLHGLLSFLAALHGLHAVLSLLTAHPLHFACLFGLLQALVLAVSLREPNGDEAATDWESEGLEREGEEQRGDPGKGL
UniProt O95299, whole entry: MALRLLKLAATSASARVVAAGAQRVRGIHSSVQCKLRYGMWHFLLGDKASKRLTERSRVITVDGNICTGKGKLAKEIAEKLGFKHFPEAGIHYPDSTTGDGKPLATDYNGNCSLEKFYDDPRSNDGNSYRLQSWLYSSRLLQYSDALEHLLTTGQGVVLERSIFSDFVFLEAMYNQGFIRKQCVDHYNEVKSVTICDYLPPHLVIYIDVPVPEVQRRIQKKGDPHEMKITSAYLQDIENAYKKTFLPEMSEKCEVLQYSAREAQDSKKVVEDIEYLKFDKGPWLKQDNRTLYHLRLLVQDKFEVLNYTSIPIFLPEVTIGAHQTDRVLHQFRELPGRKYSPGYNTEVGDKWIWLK
UniProt O95503: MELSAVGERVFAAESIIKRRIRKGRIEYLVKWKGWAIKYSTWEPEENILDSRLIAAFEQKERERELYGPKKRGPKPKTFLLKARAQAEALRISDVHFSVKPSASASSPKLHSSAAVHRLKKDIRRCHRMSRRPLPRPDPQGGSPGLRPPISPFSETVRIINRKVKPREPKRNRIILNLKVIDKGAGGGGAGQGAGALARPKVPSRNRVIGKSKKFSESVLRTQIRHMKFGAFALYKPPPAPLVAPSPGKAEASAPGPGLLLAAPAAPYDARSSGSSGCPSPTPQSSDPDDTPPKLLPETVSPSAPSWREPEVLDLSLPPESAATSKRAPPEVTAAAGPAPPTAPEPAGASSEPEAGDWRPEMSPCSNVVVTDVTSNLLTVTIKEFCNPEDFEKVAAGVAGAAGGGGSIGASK
UniProt O95881: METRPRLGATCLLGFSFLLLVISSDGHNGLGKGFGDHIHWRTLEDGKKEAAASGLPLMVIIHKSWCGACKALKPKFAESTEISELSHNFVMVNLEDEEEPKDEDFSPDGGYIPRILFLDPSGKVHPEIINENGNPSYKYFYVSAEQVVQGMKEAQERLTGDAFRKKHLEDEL
UniProt O95249: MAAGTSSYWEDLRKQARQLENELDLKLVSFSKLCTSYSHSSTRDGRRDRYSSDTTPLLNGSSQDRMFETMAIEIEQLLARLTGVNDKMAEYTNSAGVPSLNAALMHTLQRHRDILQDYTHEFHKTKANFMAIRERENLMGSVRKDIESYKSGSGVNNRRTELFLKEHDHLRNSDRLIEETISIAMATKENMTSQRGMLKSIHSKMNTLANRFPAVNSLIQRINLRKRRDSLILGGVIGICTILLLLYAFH
UniProt O75665: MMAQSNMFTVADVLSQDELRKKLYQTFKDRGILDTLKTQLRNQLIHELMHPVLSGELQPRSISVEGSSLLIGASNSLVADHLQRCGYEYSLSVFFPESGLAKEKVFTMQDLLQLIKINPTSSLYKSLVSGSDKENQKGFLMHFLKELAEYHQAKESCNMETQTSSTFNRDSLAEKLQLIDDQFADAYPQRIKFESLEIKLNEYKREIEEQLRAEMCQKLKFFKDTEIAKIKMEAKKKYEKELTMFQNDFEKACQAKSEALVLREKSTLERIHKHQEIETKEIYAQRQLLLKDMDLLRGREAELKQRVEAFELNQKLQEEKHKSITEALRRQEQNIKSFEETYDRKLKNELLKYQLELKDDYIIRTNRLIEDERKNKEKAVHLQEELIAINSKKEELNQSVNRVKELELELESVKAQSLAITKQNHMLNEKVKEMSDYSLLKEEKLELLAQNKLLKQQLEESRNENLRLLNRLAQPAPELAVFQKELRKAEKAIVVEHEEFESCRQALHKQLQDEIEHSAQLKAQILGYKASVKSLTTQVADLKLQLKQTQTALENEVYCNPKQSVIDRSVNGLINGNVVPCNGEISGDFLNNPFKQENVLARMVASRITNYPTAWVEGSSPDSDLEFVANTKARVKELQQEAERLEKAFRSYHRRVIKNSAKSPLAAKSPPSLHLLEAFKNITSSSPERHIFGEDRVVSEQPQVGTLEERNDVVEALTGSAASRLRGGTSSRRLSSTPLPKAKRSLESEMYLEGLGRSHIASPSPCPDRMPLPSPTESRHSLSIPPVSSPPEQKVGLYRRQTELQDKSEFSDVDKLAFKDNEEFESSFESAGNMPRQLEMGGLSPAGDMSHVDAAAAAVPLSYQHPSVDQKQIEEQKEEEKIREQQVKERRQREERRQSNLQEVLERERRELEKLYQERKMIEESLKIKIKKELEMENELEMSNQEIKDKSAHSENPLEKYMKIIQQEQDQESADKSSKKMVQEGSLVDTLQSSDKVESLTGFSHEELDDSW
UniProt O75937: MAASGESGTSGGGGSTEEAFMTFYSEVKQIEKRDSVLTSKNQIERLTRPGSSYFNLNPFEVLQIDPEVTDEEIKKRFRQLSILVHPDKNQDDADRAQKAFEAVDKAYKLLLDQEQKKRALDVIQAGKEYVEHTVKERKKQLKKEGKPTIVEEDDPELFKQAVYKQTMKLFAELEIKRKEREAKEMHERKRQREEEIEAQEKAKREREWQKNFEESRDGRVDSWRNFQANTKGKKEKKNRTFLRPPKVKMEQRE
UniProt O95453: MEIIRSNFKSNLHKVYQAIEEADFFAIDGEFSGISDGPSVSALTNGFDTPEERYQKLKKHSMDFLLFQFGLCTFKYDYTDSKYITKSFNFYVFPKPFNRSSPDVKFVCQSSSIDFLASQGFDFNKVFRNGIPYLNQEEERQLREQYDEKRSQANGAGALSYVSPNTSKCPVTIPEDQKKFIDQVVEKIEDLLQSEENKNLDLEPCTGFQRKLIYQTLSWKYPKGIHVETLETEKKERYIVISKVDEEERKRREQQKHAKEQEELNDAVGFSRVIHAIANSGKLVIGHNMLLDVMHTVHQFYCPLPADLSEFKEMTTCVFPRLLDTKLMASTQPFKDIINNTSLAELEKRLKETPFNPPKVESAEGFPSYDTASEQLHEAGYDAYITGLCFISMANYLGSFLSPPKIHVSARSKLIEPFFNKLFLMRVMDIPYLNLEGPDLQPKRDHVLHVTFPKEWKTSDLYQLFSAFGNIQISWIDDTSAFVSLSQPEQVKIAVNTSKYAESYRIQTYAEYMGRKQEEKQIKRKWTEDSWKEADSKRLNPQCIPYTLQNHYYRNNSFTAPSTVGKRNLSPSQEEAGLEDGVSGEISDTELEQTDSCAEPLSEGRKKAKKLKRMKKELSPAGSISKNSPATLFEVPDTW
UniProt O76041: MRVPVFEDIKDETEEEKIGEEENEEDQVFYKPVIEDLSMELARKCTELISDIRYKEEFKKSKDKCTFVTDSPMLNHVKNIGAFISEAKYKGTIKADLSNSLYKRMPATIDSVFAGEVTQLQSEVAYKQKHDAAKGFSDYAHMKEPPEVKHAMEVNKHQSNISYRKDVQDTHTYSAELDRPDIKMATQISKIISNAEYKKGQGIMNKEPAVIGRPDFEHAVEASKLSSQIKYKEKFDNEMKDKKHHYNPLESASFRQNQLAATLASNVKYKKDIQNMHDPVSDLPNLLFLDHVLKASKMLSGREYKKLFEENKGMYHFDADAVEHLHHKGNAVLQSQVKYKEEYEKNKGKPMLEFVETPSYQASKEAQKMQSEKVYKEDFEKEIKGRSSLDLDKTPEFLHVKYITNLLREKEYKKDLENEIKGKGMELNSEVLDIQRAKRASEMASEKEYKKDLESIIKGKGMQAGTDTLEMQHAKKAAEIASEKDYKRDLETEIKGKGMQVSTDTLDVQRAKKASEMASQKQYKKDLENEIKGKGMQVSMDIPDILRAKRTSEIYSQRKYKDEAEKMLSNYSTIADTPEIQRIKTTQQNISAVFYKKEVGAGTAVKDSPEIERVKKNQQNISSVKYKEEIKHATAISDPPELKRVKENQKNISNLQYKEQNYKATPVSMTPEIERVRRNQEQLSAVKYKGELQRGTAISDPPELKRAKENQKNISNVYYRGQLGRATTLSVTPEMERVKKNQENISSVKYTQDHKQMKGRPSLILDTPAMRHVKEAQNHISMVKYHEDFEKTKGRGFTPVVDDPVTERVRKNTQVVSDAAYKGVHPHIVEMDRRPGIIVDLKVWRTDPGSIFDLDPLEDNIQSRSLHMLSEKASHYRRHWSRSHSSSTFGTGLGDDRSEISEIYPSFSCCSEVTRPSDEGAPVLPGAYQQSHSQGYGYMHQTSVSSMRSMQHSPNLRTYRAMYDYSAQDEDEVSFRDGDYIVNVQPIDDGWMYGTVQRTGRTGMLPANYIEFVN
UniProt O94887: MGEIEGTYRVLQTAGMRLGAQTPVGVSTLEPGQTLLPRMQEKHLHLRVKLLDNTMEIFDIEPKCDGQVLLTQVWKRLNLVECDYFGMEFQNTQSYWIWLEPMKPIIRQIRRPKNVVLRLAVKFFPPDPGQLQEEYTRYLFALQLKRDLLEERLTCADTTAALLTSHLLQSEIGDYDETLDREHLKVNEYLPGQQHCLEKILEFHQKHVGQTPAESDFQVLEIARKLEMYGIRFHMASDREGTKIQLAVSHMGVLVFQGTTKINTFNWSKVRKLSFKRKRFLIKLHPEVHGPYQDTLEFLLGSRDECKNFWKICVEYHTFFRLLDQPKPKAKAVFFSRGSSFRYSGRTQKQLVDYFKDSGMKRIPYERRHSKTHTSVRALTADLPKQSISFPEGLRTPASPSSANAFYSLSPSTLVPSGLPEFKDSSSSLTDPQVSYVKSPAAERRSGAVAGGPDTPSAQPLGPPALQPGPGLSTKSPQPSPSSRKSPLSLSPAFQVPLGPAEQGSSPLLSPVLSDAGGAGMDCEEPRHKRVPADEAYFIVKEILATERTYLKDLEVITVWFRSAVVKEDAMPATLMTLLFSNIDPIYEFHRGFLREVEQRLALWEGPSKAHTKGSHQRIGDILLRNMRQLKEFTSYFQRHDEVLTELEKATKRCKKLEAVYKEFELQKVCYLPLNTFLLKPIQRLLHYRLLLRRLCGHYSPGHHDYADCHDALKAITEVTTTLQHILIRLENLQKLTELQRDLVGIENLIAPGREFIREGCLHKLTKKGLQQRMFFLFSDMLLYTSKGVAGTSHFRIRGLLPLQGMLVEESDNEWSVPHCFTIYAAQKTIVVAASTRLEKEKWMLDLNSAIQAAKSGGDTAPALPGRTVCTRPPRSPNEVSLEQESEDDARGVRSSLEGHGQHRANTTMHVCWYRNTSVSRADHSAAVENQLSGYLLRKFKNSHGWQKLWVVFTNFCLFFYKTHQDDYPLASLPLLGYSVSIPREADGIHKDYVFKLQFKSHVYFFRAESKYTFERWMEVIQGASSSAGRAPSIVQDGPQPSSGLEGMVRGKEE
UniProt O77932: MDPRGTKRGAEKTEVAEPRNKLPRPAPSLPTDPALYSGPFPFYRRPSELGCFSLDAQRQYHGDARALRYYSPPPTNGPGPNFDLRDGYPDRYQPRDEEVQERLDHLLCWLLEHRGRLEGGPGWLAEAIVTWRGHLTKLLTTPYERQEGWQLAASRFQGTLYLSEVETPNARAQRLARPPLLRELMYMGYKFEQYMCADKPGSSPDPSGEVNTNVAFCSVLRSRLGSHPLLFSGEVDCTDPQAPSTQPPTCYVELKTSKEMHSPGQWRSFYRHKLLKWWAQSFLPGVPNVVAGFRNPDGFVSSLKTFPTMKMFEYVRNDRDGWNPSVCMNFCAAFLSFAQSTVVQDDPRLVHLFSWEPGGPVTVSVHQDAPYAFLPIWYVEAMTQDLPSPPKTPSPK
UniProt O75638, whole entry: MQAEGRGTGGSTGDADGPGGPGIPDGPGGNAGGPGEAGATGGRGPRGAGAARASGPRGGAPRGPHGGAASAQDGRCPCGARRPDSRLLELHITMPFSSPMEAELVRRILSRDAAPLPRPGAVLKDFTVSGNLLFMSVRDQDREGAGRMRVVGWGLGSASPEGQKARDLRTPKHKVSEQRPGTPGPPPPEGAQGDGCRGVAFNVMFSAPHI
UniProt O95379: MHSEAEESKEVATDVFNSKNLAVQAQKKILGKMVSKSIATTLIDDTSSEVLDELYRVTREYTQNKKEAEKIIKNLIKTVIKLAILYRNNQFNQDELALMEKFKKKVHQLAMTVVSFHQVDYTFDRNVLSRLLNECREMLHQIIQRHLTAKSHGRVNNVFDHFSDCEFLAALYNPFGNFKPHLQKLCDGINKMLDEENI
UniProt O75947: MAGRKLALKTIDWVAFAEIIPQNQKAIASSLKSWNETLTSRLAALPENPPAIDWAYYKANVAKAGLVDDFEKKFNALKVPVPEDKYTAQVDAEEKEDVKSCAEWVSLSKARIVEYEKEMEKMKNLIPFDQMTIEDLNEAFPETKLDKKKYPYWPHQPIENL

The list shows a part of the results. Most values lie at the level of the controls, where differences are scatter.

Compound in this experiment: Cc1nc(Nc2ncc(C(=O)Nc3c(C)cccc3Cl)s2)cc(N2CCN(CCO)CC2)n1 [dasatinib]
Nature of the experiment: log2 fold change of tryptic peptide abundance, ligand vs vehicle (limited proteolysis) (log2 ratio); higher = more trypsin-susceptible (destabilized). The conditions noted are these: ligand concentration: 5 uM; sample: K562 cleared lysate.
As for “C6orf47 (peptide sequence: WDHVDSGGTR, peptide start residue: 117) (UniProt O95873)”, the log2 fold change is -0.0459. With “UniProt O95789 (peptide sequence: HSSPACLPPPPKK, peptide start residue: 124)”, the log2 fold change was -0.222.

In the case of “BAG2 (peptide sequence: IIDEVVNK, peptide start residue: 116) (UniProt O95816)”, the log2 fold change is -0.0784.

As to “NDUFA10 (peptide sequence: CEVLQYSAR, peptide start residue: 253) (UniProt O95299)”, the log2 fold change was -0.00128. Take “UniProt O95503 (peptide sequence: VIDKGAGGGGAGQGAGALAR, peptide start residue: 180)”: the log2 fold change was 0.773. As for “ECD (peptide sequence: VFFCHGELCIIPAPRK, peptide start residue: 138) (UniProt O95905)”, the log2 fold change was -0.327. Consider “TXNDC12 (peptide sequence: KKHLEDEL, peptide start residue: 165) (UniProt O95881)”, for which the log2 fold change was -0.0936. As to “ZRANB2 (peptide sequence: GKAVGPASILK, peptide start residue: 136) (UniProt O95218)”, the log2 fold change was -0.347. Regarding “B3GAT3 (peptide sequence: GHLESSLLSHLVDPK, peptide start residue: 278) (UniProt O94766)”, the log2 fold change came to 0.0927. Consider “GOSR1 (peptide sequence: HRDILQDYTHEFHK, peptide start residue: 111) (UniProt O95249)”, for which the log2 fold change came out at 0.434.

“FRYL (peptide sequence: QFNLEIIK, peptide start residue: 2221) (UniProt O94915)”: the log2 fold change was determined as 0.516.

For “OFD1 (peptide sequence: RLSSTPLPK, peptide start residue: 733) (UniProt O75665)”, the log2 fold change was -0.247.

For “DNAJC8 (peptide sequence: DSVLTSKNQIER, peptide start residue: 34) (UniProt O75937)”, the log2 fold change is -0.652.

As for “EIF3J (peptide sequence: KRQEEIK, peptide start residue: 90) (UniProt O75822)”, the log2 fold change is -0.135. As for “GSR (peptide sequence: GHAAFTSDPKPTIEVSGK, peptide start residue: 172) (UniProt P00390)”, the log2 fold change was found to be 0.303. In the case of “ALDH1A1 (peptide sequence: LECGGGPWGNK, peptide start residue: 368) (UniProt P00352)” it was 0.189; in that of “RECQL5 (peptide sequence: PSAKPSVVAEVK, peptide start residue: 873) (UniProt O94762)”, 0.647; in that of “PARN (peptide sequence: KLIYQTLSWKYPK, peptide start residue: 211) (UniProt O95453)”, -0.243.

In the case of “NEBL (peptide sequence: DEAEKMLSNYSTIADTPEIQR, peptide start residue: 562) (UniProt O76041)”, the log2 fold change was -0.102. On to “ZBED1 (peptide sequence: SLESSQTDLK, peptide start residue: 5) (UniProt O96006)”, for which the log2 fold change was determined as 0.294. To “MYCBP2 (peptide sequence: VYNATSDADLKEHMVGIIFSR, peptide start residue: 3939) (UniProt O75592)” belongs -0.46; to “MED26 (peptide sequence: LTFDPMTR, peptide start residue: 425) (UniProt O95402)”, 0.362; to “FARP2 (peptide sequence: QLVDYFKDSGMK, peptide start residue: 350) (UniProt O94887)”, 0.426. As for “UniProt O77932 (peptide sequence: GAEKTEVAEPR, peptide start residue: 9)”, the log2 fold change came to 0.0293. For the target “WBP4 (peptide sequence: WEKPDDFIPHTSDLPSSK, peptide start residue: 191) (UniProt O75554)”, the log2 fold change was -0.61.

For “CTAG2 (peptide sequence: GPHGGAASAQDGR, peptide start residue: 63) (UniProt O75638)”, the log2 fold change amounted to 0.0766.

With “TNFAIP8 (peptide sequence: EYTQNKK, peptide start residue: 60) (UniProt O95379)”, the log2 fold change was -0.287. To “UniProt O75947 (peptide sequence: IVEYEKEMEK, peptide start residue: 112)” belongs -0.376.
